Data: article PMC9639322
Results are given in words; binding and its absence hold for the method and conditions named. In cells and extracts the contact can be indirect. Some binding calls cover weakened binding; strength is not graded here. Values belong to the molecule of their own block, whether it stands above or below them.

Sequences of proteins named here, by UniProt entry; tags and fusion partners are left off. Residues count along the entry.
UniProt P35916, residues 25-1363: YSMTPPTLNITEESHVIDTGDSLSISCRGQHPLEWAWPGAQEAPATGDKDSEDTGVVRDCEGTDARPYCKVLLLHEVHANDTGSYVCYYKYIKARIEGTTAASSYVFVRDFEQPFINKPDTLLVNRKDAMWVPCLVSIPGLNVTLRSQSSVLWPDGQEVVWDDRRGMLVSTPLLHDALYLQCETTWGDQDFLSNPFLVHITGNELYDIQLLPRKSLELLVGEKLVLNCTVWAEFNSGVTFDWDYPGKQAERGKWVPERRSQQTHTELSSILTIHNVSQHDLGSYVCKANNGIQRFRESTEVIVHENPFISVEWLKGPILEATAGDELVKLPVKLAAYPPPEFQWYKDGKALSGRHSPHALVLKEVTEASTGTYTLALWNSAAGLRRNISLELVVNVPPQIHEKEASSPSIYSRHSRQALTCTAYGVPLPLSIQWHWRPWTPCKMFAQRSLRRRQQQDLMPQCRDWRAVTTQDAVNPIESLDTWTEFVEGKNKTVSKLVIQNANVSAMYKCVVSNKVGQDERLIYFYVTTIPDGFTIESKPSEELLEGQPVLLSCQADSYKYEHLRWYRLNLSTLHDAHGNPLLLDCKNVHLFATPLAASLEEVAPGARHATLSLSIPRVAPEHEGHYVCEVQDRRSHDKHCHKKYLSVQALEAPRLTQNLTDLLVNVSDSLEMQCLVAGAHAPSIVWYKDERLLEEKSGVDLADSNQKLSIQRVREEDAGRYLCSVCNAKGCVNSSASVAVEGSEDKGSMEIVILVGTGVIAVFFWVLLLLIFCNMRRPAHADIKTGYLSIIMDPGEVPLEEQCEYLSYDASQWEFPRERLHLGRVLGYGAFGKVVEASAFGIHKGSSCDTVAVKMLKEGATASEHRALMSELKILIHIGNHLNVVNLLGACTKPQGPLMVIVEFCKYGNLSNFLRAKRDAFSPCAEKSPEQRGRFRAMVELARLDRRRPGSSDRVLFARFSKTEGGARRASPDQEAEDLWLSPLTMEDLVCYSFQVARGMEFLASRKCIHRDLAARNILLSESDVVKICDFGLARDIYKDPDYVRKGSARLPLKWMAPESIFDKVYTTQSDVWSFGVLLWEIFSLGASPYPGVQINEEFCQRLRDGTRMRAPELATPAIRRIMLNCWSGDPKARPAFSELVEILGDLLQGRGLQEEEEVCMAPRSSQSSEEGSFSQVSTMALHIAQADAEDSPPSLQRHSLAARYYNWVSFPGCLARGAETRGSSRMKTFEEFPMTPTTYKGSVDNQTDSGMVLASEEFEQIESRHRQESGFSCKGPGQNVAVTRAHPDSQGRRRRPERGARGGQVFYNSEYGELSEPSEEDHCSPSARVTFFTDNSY

Columns and labels:
[1] = molecular target: T1, Dual-specificity phosphatase 19 (human (endogenous in QGP-1)) (UniProt Q8WTR2); test: co-IP; endogenous proteins in QGP-1 cell lysate (1000 μg cellular protein); anti-VEGFR3 or anti-DUSP19 antibody or mouse IgG overnight at 4 °C; Western blot for VEGFR3 and DUSP19; cells with shLuc, shDUSP19 or shVEGFR3
T1 sequence: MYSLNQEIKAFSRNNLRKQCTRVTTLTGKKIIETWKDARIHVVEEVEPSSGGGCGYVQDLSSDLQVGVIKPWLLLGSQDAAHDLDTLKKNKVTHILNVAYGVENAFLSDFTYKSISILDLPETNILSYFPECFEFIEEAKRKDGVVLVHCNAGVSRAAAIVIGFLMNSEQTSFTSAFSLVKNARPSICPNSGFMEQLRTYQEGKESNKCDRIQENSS

[2] = molecular target: Vascular endothelial growth factor receptor 3 (human (endogenous in QGP-1)) (UniProt P35916); test: as above

binding [1]: binds
Molecule: Vascular endothelial growth factor receptor 3 (from UniProt P35916 25-1363)

binding [2]: binds
B1: Dual-specificity phosphatase 19 (enzyme, UniProt Q8WTR2 1-217)
chain: T1 sequence
